Measured values from PubChem BioAssay AID2685 (National Center for Advancing Translational Sciences (NCATS), 2010).
In all, about 320,000 compounds went through this assay and about 2,100 (0.66%) were called active. Inconclusive results, whose numbers are uncertain, are shown with a selection of clear calls. Calls come from the whole dose curve; as a rule, active = well fitted inhibition curve with a large enough effect in the signal ratio, with a control signal flat (not every such curve was filed as active); inconclusive = small, poorly fitted or top-dose-only effect, or effect the other way, or a change in a side signal; inactive = flat fitted curve, though single readings scatter; the % refers to the signal ratio. A potency beside an inconclusive call is a rough fit, not a confirmed value.

test: qHTS Assay for Lipid Storage Modulators in Drosophila S3 Cells; details: BODIPY lipid droplet fluorescence, 18-24 h, cells fed with added oleic acid; lipid storage change, negative = inhibition: at 46.1 µM (top of the series) unless noted
Summary of the method: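 Laser-scanning cytometry quantifies lipid droplet accumulation (500–530 nm total intensity; droplet/cell object ratio) in oleic acid-fed (400 uM added) Drosophila S3 cells treated with a concentration series. 20 uM Triacsin C defined 100% inhibition.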
% is set by controls: 0 for no effect and ±100 for the full control effect; potency is the fitted concentration of half-maximal effect.

Row | Compound | lipid storage change, negative = inhibition | Potency
1 | Cc1ccc(CN2CCc3c(OCC(=O)Nc4cc(C)ccc4C)cccc3C2=O)cc1 | inconclusive: 1.58% | 
2 | Cn1c(SCC(=O)c2ccc3c(c2)OCO3)nnc1-c1ccccn1 | inconclusive: 23.5% | 
3 | O=C(c1ccccc1)N1CCN(CC(O)COCC2CC=CCC2)CC1 (centres undefined) | inconclusive: 6.76% | 
4 | COc1ccc(Cl)cc1N(CC(=O)NCC(C)C)S(=O)(=O)c1ccc(C)c([N+](=O)[O-])c1 | inconclusive: 10% | 
5 | COc1ccc(/C=C2\SC(=S)N(CCC(=O)Nc3ccc(C(=O)O)cc3)C2=O)cc1 |  | inconclusive: 18.4 µM [falling, single point]
6 | FC(F)Sc1nc2ccccc2[nH]1 | inconclusive: -21.2% | 
7 | Oc1ccc(/C=N/NC2=NCCCCC2)cc1 |  | active: 9.2 µM
8 | CC1CC(C)CN(CC(=O)N2CCCc3c2c(=O)oc2ccc(OCc4ccccc4)cc32)C1 (centres undefined) | inconclusive: 229% | 
9 | CC(C)(C)c1ccc(COn2ccnc2)cc1 |  | inconclusive: 29.1 µM [falling, single point]
10 | Cc1ccc(NC(=O)CCc2c(C)nn(-c3ccc(N4CCCCC4)nn3)c2C)cc1 | inactive | 
11 | CCCc1[nH]nc2c1C(c1ccncc1)C(C#N)=C(N)O2 (centres undefined) | inconclusive: -27.7% | 
12 | CC(=O)Nc1ccc(S(=O)(=O)N(C)c2ccc(OCC(=O)Nc3ccccc3C(C)=O)cc2)cc1 | inconclusive | 
13 | O=C(CCSCCc1ccccn1)Nc1ccc(Br)cn1 |  | inconclusive: 5.17 µM [activator, single point]
14 | O=[N+]([O-])c1ccc2c(c1)c1ccccc1n2CCO | inactive | 
15 | CCN(CC)CCCN(Cc1cc2cc(OC)ccc2[nH]c1=O)C(=O)Nc1ccccc1 | inconclusive: 20.2% | 
16 | O=C(COC(=O)c1cc(-c2ccco2)nc2ccccc12)NCc1ccccc1 |  | inconclusive: 0.231 µM [activator, full curve]
17 | Cc1cc(C(=O)CN2C(=O)NC3(CCCCCC3)C2=O)c(C)n1C | inconclusive | 
18 | O=C(O)/C=C/C(=O)Nc1ccccc1C(=O)Nc1ccccc1 | inconclusive: -63.4% | 
19 | CCC(C)NC(=O)C1CC(c2ccc(OC)cc2)=NO1 (centres undefined) | inconclusive: -35.5% | 
20 | COc1ccc(C(=O)Nc2sc(C(=O)N(C)C)c(C)c2C#N)cc1[N+](=O)[O-] | inconclusive: -18% | 
21 | COC(=O)C1=C(C)N(CC2CCCO2)C(=O)C1 (centres undefined) | inconclusive: -4.44% | 
22 | CCC1CCCCN1CCNS(=O)(=O)c1ccc2c(c1)CCN2C(C)=O (centres undefined) | inconclusive: 2.25% | 
23 | C=CCS(=O)(=O)c1nc2ccccc2s1 | inconclusive: 155% | 
24 | CC(C)CSc1n[nH]c(=S)s1 | inconclusive: -4.33% | 

Compounds above that contain a COOH group:
Row | Compound | lipid storage change, negative = inhibition | Potency
5 | COc1ccc(/C=C2\SC(=S)N(CCC(=O)Nc3ccc(C(=O)O)cc3)C2=O)cc1 |  | inconclusive: 18.4 µM [falling, single point]
18 | O=C(O)/C=C/C(=O)Nc1ccccc1C(=O)Nc1ccccc1 | inconclusive: -63.4% | 
